Positions count from the first letter of the chain named. Values belong to the binder of their own block, whether it stands above or below them.
How the values were obtained:
[1] = biological target: T1, PSMA (prostate specific membrane antigen) expressed on cells (human, UniProt Q04609 1-750); experiment: flow cytometry on PSMA-expressing cells (LNCaP, HEK293-PSMA), paragraph 135
T1 construct: whole, on cells; also called cell surface-exposed PSMA; PSMA on LNCaP-cells
Method: Flow cytometry was used to analyze the binding of PSMA binding proteins to cell surface-exposed PSMA. PSMA overexpressing human prostate carcinoma cell line LNCaP, PSMA overexpressing transfected HEK293-PSMA-cells, PSMA non-expressing PC3-cells and empty vector control HEK293-pEntry-cells were used. Cells were trypsinized and resuspended in medium containing FCS, washed and stained in pre-cooled FACS blocking buffer. A cell concentration of 1×10⁶ cells/ml was prepared for cell staining and 100 μl were respectively filled into the wells of a 96 well plate (Greiner) in triplicate for each cell line. Different concentrations, for example 50 nM of PSMA binding proteins or 0.5 μg/ml monoclonal anti-human-PSMA antibody (clone LNI-17; Biolegend; 342502) as positive control were added to PSMA overexpressing and control cells in several experiments. PSMA-binding proteins included C-terminal Strep-tags (see e.g. SEQ ID NO: 71) for purification and detection purposes. After 45 min the supernatants were removed and 100 μl/well rabbit anti-Strep-Tag antibody (obtained from GenScript; A00626), 1:300 diluted in FACS blocking buffer were added. Anti-PSMA antibody was detected with anti-mouse-IgG-Alexa 488 (Invitrogen; A-10680) with a dilution of 1:1000 in the positive control wells. After removal of the anti-Strep-Tag antibody from the other wells goat anti-rabbit IgG Alexa Fluor 488 antibody (obtained from Invitrogen; A11008) was applied in a 1:1000 dilution. Flow cytometry measurement was conducted on the Guava easyCyte 5HT device from Merck-Millipore at excitation wavelength 488 nm and emission wavelength 525/30 nm. […] Positive binding on PSMA-expressing cells was also observed for anti-PSMA-antibody.

[2] = biological target: T2, His-Fc-PSMA (extracellular domain of human PSMA, residues 45-750, fused with the Fc region of human IgG1 and … (human, UniProt Q04609 45-750)); experiment: SPR (Biacore), PSMA-Fc immobilized; unit not printed in this figure, M as in FIGURE 1
T2 construct: range 45-750; Made in Expi293F cells; Order of parts follows the printed name His-Fc-PSMA; also called PSMA-Fc; hPSMA-Fc; not shown: N-terminal His-tag; Fc region of human IgG1
Description: A CM5 sensor chip (GE Healthcare) was equilibrated with SPR running buffer. Surface-exposed carboxylic groups were activated by passing a mixture of EDC and NHS to yield reactive ester groups. 700-1500 RU PSMA-Fc (on-ligand) were immobilized on a flow cell, IgG-Fc (off-ligand) was immobilized on another flow cell at a ratio of 1:3 (hlgG-Fc:Target) to the target. Injection of ethanolamine after ligand immobilization was used to block unreacted NHS groups. Upon ligand binding, protein analyte was accumulated on the surface increasing the refractive index. This change in the refractive index was measured in real time and plotted as response or resonance units (RU) versus time. The analytes were applied to the chip in serial dilutions with a flow rate of 30 μl/min. The association was performed for 120 seconds and the dissociation for 360 seconds. After each run, the chip surface was regenerated with 30 μl regeneration buffer and equilibrated with running buffer. A dilution series served as positive control, whereas a dilution series of unmodified ubiquitin represents the negative control. The control samples were applied to the matrix with a flow rate of 30 μl/min, while they associate for 60 seconds and dissociate for 120 seconds. Regeneration and re-equilibration were performed as previously mentioned. Binding studies were carried out by the use of the Biacore 3000 (GE Healthcare); data evaluation was operated via the BIAevaluation 3.0 software, provided by the manufacturer, by the use of the Langmuir 1:1 model (RI=0). After fitting the data with a 1:1 langmuir model, for example, KD values were calculated and shown in FIG. 1, FIG. 2, FIG. 3, and Table 2. Evaluated dissociation constants (KD) were standardized against off-target and indicated.

B1: 187096 with C-terminal Strep-tag (designed binder)
ubiquitin mutein: MQIFVYTRELKQITLEVEPSDTIENVKAKIQDKEGIPPDQQMLFWKGKQLEDGRTLSDYNIWWNPNLSLNLDLRAASAWSHPQFEK
notes: also called Affilin-187096
binding result [1]: binds

B2: 187186 with C-terminal Strep-tag (designed binder)
ubiquitin mutein: B1 ubiquitin mutein with E9V, K29R
notes: also called Affilin-187186
binding result [1]: binds

B3: 187178 with C-terminal Strep-tag (designed binder)
ubiquitin mutein: B1 ubiquitin mutein with E9V, I36T, M42T, K46R
notes: also called Affilin-187178
binding result [1]: binds

B4: 187295 with C-terminal Strep-tag (designed binder)
ubiquitin mutein: B1 ubiquitin mutein with E9V, L73R
notes: also called Affilin-187295
binding result [1]: binds

B5: 187283 with C-terminal Strep-tag (designed binder)
ubiquitin mutein: B1 ubiquitin mutein with E9V, L71R
notes: also called Affilin-187283
binding result [1]: binds

B6: 187154 with C-terminal Strep-tag (designed binder)
ubiquitin mutein: B1 ubiquitin mutein with E9A, E18G, Q31R, N70D
notes: also called Affilin-187154
binding result [1]: binds

B7: 187210 with C-terminal Strep-tag (designed binder)
ubiquitin mutein: B1 ubiquitin mutein with E9A, K33R
notes: also called Affilin-187210
binding result [1]: binds

B8: 187165 with C-terminal Strep-tag (designed binder)
ubiquitin mutein: B1 ubiquitin mutein with E9A, I23V, N70D
notes: also called Affilin-187165
binding result [1]: binds

B9: 187134 with C-terminal Strep-tag (designed binder)
ubiquitin mutein: B1 ubiquitin mutein with E9V, E16A
notes: also called Affilin-187134
binding result [1]: binds

B10: 187064 with C-terminal Strep-tag (designed binder)
ubiquitin mutein: B1 ubiquitin mutein with R8K, E9Q
notes: also called Affilin-187064
binding result [1]: binds

B11: 187131 with C-terminal Strep-tag (designed binder)
ubiquitin mutein: B1 ubiquitin mutein with E9A, D72G
notes: also called Affilin-187131
binding result [1]: binds

B16: 162462 with C-terminal Strep-tag (designed binder)
bis-ubiquitin mutein: MQIFVRTPTGKTITLEVEPSDTIENVKAKIQDKEGIPPDQQRLIWAGKQLEDGRTLSDYNIGFAHRLHLVLRLRAAMQIFVMTQTGKTITLEVEPSDTIENVKAKIQDKEGIPPDQQRLIWAGKQLEDGRTLSDYNIWTTTFLHLVLRLRAASAWSHPQFEK
notes: also called Affilin-162462
binding result [1]: binds

B27: SEQ ID NO: 25 (Affilin-164667; motif KHNTW) (designed binder)
chain: MQIFVKTLTFEHPSFGKTITLEVEPSDTIENVKAKIQDKEGIPPDQQHLYWAGKQLEDGRTLSDYNIKHNTWLELMLFLRAA
Kd [2]: 7.29 nM

B28: 162102 (designed binder)
ubiquitin mutein: B27 chain with F10P, E11I, H12P, S14D, F15W
notes: also called Affilin-162102
Kd [2]: 63.6 nM

B29: 161374 (designed binder)
ubiquitin mutein: B27 chain with F10P, E11Q, H12P, S14E, F15Y
notes: also called Affilin-161374
Kd [2]: 43.5 nM

B30: 161717 (designed binder)
ubiquitin mutein: B27 chain with P13H
notes: also called Affilin-161717
Kd [2]: 40 nM

B31: 161912 (designed binder)
ubiquitin mutein: B27 chain with F10P, E11P, H12F, P13A, S14F, F15W
notes: also called Affilin-161912
Kd [2]: 77.8 nM

B32: 162034 (designed binder)
ubiquitin mutein: B27 chain with F10P, E11Q, H12P, S14E
notes: also called Affilin-162034
Kd [2]: 87.7 nM

B33: 161776 (designed binder)
ubiquitin mutein: B27 chain with P13K
notes: also called Affilin-161776
Kd [2]: 41.1 nM

B34: 162055 (designed binder)
ubiquitin mutein: B27 chain with P13N, A52V
notes: also called Affilin-162055
Kd [2]: 39.8 nM

B35: 161843 (designed binder)
ubiquitin mutein: B27 chain with F10P, E11Q, H12P, S14E, F15W
notes: also called Affilin-161843
Kd [2]: 51.7 nM

B36: 162462 (designed binder)
bis-ubiquitin mutein: MQIFVRTPTGKTITLEVEPSDTIENVKAKIQDKEGIPPDQQRLIWAGKQLEDGRTLSDYNIGFAHRLHLVLRLRAAMQIFVMTQTGKTITLEVEPSDTIENVKAKIQDKEGIPPDQQRLIWAGKQLEDGRTLSDYNIWTTTFLHLVLRLRAA
notes: also called Affilin-162462
Kd [2]: 13.5 nM

B37: 163970 (designed binder)
bis-ubiquitin mutein: B36 bis-ubiquitin mutein with R6W, R66L
notes: also called Affilin-163970
Kd [2]: 11 nM

B38: 161644 (designed binder)
bis-ubiquitin mutein: B36 bis-ubiquitin mutein with G62S, F63Y
notes: also called Affilin-161644
Kd [2]: 30.1 nM

B39: 162633 (designed binder)
bis-ubiquitin mutein: B36 bis-ubiquitin mutein with P8W, G62W, F63W, H65D
notes: also called Affilin-162633
Kd [2]: 13.5 nM

B40: 161438 (designed binder)
bis-ubiquitin mutein: B36 bis-ubiquitin mutein with P8H, G62S, Q84R
notes: also called Affilin-161438
Kd [2]: 23.3 nM

B41: 164052 (designed binder)
bis-ubiquitin mutein: B36 bis-ubiquitin mutein with P8G
notes: also called Affilin-164052
Kd [2]: 16.7 nM

More lines, now with the values ahead:

binding result [1]: binds
B12: 187170 with C-terminal Strep-tag (designed binder)
ubiquitin mutein: B1 ubiquitin mutein with E9A, D72N
notes: also called Affilin-187170

binding result [1]: binds
B13: 187093 with C-terminal Strep-tag (designed binder)
ubiquitin mutein: B1 ubiquitin mutein with Y6W, L10F
notes: also called Affilin-187093

binding result [1]: binds
B14: 187092 with C-terminal Strep-tag (designed binder)
ubiquitin mutein: B1 ubiquitin mutein with R8A
notes: also called Affilin-187092

binding result [1]: binds
B15: 187191 with C-terminal Strep-tag (designed binder)
ubiquitin mutein: B1 ubiquitin mutein with E9A, K48R
notes: also called Affilin-187191

binding result [1]: binds
B17: 164058 with C-terminal Strep-tag (designed binder)
bis-ubiquitin mutein: B16 bis-ubiquitin mutein with P8I
notes: also called Affilin-164058

binding result [1]: binds
B18: 164052 with C-terminal Strep-tag (designed binder)
bis-ubiquitin mutein: B16 bis-ubiquitin mutein with P8G
notes: also called Affilin-164052

binding result [1]: binds
B19: 185071 with C-terminal Strep-tag (designed binder)
bis-ubiquitin mutein: B16 bis-ubiquitin mutein with P8M, G62W, F63G, A64G, M82L, T140P, T141S, F142I
notes: also called Affilin-185071

binding result [1]: binds
B20: 161644 with C-terminal Strep-tag (designed binder)
bis-ubiquitin mutein: B16 bis-ubiquitin mutein with G62S, F63Y
notes: also called Affilin-161644

binding result [1]: binds
B21: 161438 with C-terminal Strep-tag (designed binder)
bis-ubiquitin mutein: B16 bis-ubiquitin mutein with P8H, G62S, Q84R
notes: also called Affilin-161438

binding result [1]: binds
B22: 162633 with C-terminal Strep-tag (designed binder)
bis-ubiquitin mutein: B16 bis-ubiquitin mutein with P8W, G62W, F63W, H65D
notes: also called Affilin-162633

binding result [1]: binds
B23: 192444 with C-terminal Strep-tag (designed binder)
bis-ubiquitin mutein: B16 bis-ubiquitin mutein with P8L, K33T, M82L, K124T, T140P, T141S, F142I
notes: also called Affilin-192444

binding result [1]: binds
B24: 164668 with C-terminal Strep-tag (designed binder)
bis-ubiquitin mutein: B16 bis-ubiquitin mutein with P8M
notes: the form without a stated tag is m27; also called Affilin-164668

binding result [1]: binds
B25: 163970 with C-terminal Strep-tag (designed binder)
bis-ubiquitin mutein: B16 bis-ubiquitin mutein with R6W, R66L
notes: also called Affilin-163970

binding result [1]: binds
B26: SEQ ID NO: 25 (Affilin-164667) with C-terminal Strep-tag (designed binder)
chain: MQIFVKTLTFEHPSFGKTITLEVEPSDTIENVKAKIQDKEGIPPDQQHLYWAGKQLEDGRTLSDYNIKHNTWLELMLFLRAASAWSHPQFEK

Source: patent US20220168386A1 (NAVIGO PROTEINS, published 2022)
